In the assay the test system is BDF1 mice, L1210 terephthalanilide-resistant leukemia ip, survival T/C. Nature of the assay: NCI In Vivo Anticancer Drug Screen. Data for tumor model L1210 Leukemia resistant to A Terephthalanilide; NSC 38280 (intraperitoneal) in B6D2F1 (BDF1) mice. The conditions noted are these: T/C endpoint: mean survival time, higher T/C = longer survival. How it is done:
The antitumor activity of compounds was measured in mice bearing transplantable tumors. Survival or tumor size were measured and the results are expressed as the measurement made in the treated group (T) divided by the measurement made in the vehicle treated control group (C). The tumor model used in this assay is L1210 Leukemia resistant to A Terephthalanilide; NSC 38280 (intraperitoneal) in B6D2F1 (BDF1) mice

The mark [1] stands for this setting: dose: 300.0 mg/kg/injection, schedule: Q01DX Z (ip), vehicle: water.
Setting [2] is: dose: 5.0 mg/kg/injection, schedule: Q01DX Z (ip), vehicle: carboxymethylcellulose (CMC).
Where [3] appears, read: dose: 50.0 mg/kg/injection, schedule: Q01DX Z (ip), vehicle: carboxymethylcellulose (CMC).
[4] abbreviates: dose: 250.0 mg/kg/injection, schedule: Q01DX Z (ip), vehicle: carboxymethylcellulose (CMC).
Where [5] appears, read: dose: 200.0 mg/kg/injection, schedule: Q01DX010 (ip), vehicle: saline.
[6] abbreviates: dose: 800.0 mg/kg/injection, schedule: Q01DX010 (ip), vehicle: saline.
The mark [7] stands for this setting: dose: 1600.0 mg/kg/injection, schedule: Q01DX010 (ip), vehicle: saline.
Setting [8] is: dose: 6.25 mg/kg/injection, schedule: Q01DX010 (ip), vehicle: saline.

The list is a part of this screen's results and no random one: it is rich in T/C values a quarter to a half above the control, in often repeated tests (any T/C) and in doses without a T/C. Further doses and runs are listed elsewhere. T/C is the treated group as % of the vehicle group. Some entries give survivors of the animals treated and no T/C: the source holds a T/C of zero for them, seemingly a mark for toxic or unscored doses. Some doses without a T/C left all or most animals alive at the check, yet need not have been tolerated: survival well below the control is almost never listed, so the zero probably covers shortened survival too. Counts of survivors are from the toxicity check (mostly the fifth day) where no day follows; animals may have died later. Schedules are NCI's codes, taken here to give the interval after Q, in days (D) or hours (H), and the number of doses after X. Some entries hold several experiments; their values stand side by side, smallest first. Some schedules carry Z or #; the key to these is not given. For survival time, the PubChem record calls one and a half times the control and up active, and a quarter to a half above the control has no call in these data; cut-offs in other NCI protocols can differ. Additions like (4×) stand for listed records that agree. Some T/C values are followed by the survivors on the day toxicity was checked, most often the fifth; where none is given, no animal had died by that day.

Take `Nc1nc2n[nH]nc2c(=O)[nH]1`: the T/C is 127 and 133 % of control (dose: 25.0 mg/kg/injection, schedule: Q01DX010 (ip), vehicle: alkali diluted with saline); 131 % of control (dose: 25.0 mg/kg/injection, schedule: Q01DX Z (ip), vehicle: water); 136 % of control (2×) (dose: 50.0 mg/kg/injection, schedule: Q01DX010 (ip), vehicle: alkali diluted with saline); 137 % of control (dose: 50.0 mg/kg/injection, schedule: Q01DX Z (ip), vehicle: water); 143 and 144 % of control (dose: 100.0 mg/kg/injection, schedule: Q01DX010 (ip), vehicle: alkali diluted with saline); 137 % of control (dose: 100.0 mg/kg/injection, schedule: Q01DX Z (ip), vehicle: water). The T/C reads like this: (dose: 200.0 mg/kg/injection, schedule: Q01DX010 (ip), vehicle: alkali diluted with saline) 141 and 144 % of control; (dose: 200.0 mg/kg/injection, schedule: Q01DX Z (ip), vehicle: water) 129 % of control; under setting [1], 130 % of control. Besides, the survivor count by setting is: under setting [1], 5 of 6; (dose: 400.0 mg/kg/injection, schedule: Q01DX Z (ip), vehicle: water) 3 of 6; (dose: 600.0 mg/kg/injection, schedule: Q01DX Z (ip), vehicle: water) 0 of 6; (dose: 750.0 mg/kg/injection, schedule: Q01DX Z (ip), vehicle: water) 0 of 6.

Turning to `S=c1nc[nH]c2nc[nH]c12`, the T/C reads like this: (dose: 5.0 mg/kg/injection, schedule: Q01DX010 (ip), vehicle: alkali diluted with saline) 96, 98, 108, 120 % of control; under setting [2], 138 % of control; (dose: 10.0 mg/kg/injection, schedule: Q01DX010 (ip), vehicle: alkali diluted with saline) 103, 111, 115, 118 % of control; (dose: 20.0 mg/kg/injection, schedule: Q01DX010 (ip), vehicle: alkali diluted with saline) 114, 115, 125, 126 % of control; (dose: 40.0 mg/kg/injection, schedule: Q01DX010 (ip), vehicle: alkali diluted with saline) 134, 135, 136, 148 % of control; under setting [3], 140 % of control. Moreover, for the setting “dose: 80.0 mg/kg/injection, schedule: Q01DX010 (ip), vehicle: alkali diluted with saline”, the T/C is 128, 131 [5 of 6 alive], 143, 161 % of control. Moreover, the survivor count is, setting by setting: (dose: 125.0 mg/kg/injection, schedule: Q01DX Z (ip), vehicle: carboxymethylcellulose (CMC)) 6 of 6; under setting [4], 3 of 6; (dose: 500.0 mg/kg/injection, schedule: Q01DX Z (ip), vehicle: carboxymethylcellulose (CMC)) 0 of 6.

`CCN(CC)c1ccc2cc3ccc(=[N+](CC)CC)cc-3oc2c1`: where the note is “dose: 8.0 mg/kg/injection, schedule: Q01DX010 (ip), vehicle: saline”, the survivor count is given as 4 of 6.

Regarding `O=c1cnn(C2OC(CO)C(O)C2O)c(=O)[nH]1` (configuration not stated), the T/C under setting [5] is recorded as 132, 139, 148 % of control; the T/C under setting [6] was 134 % of control; the T/C under setting [7] was 140 % of control. Further, the survivor count is, setting by setting: under setting [6], 0 of 6; under setting [7], 6 of 6.

Consider `C[C@H]1C(=O)O[C@@H]2CCN3CC=C(COC(=O)[C@](C)(O)[C@@]1(C)O)[C@H]23`, for which, under setting [8], the survivor count is 6 of 6. The T/C (dose: 200.0 mg/kg/injection, schedule: Q01DX Z (ip), vehicle: carboxymethylcellulose (CMC)) was 128 % of control; the T/C under setting [4] was 137 % of control; the T/C (dose: 300.0 mg/kg/injection, schedule: Q01DX Z (ip), vehicle: carboxymethylcellulose (CMC)) was 138 % of control; the T/C (dose: 350.0 mg/kg/injection, schedule: Q01DX Z (ip), vehicle: carboxymethylcellulose (CMC)) is 143 % of control.

As for `O=NN(CCCl)C(=O)NCCCl`, the T/C reads like this: under setting [8], 134 % of control; (dose: 12.5 mg/kg/injection, schedule: Q01DX010 (ip), vehicle: saline) 144 % of control. Further, the survivor count was 6 of 6 (dose: 25.0 mg/kg/injection, schedule: Q01DX010 (ip), vehicle: saline); 3 of 6 and 6 of 6 (dose: 50.0 mg/kg/injection, schedule: Q01DX010 (ip), vehicle: saline).

Take `CC(=O)Nc1ccc2nc3ccc(NC(C)=O)cc3[n+](-c3ccccc3)c2c1`: the T/C is 125 % of control (dose: 25.0 mg/kg/injection, schedule: Q01DX Z (ip), vehicle: carboxymethylcellulose (CMC)); 138 % of control under setting [3]; 136 % of control (dose: 75.0 mg/kg/injection, schedule: Q01DX Z (ip), vehicle: carboxymethylcellulose (CMC)); 127 % of control (dose: 100.0 mg/kg/injection, schedule: Q01DX Z (ip), vehicle: carboxymethylcellulose (CMC)); 130 % of control under setting [5]. For the setting “dose: 600.0 mg/kg/injection, schedule: Q01DX Z (ip), vehicle: carboxymethylcellulose (CMC)”, the survivor count is listed as 6 of 6.

With `C[N+](C)(C)c1ncnc2nc[nH]c12`, the survivor count is 6 of 6 (dose: 60.0 mg/kg/injection, schedule: Q01DX010 (ip), vehicle: saline); 6 of 6 (dose: 120.0 mg/kg/injection, schedule: Q01DX010 (ip), vehicle: saline); 0 of 6 (dose: 300.0 mg/kg/injection, schedule: Q01DX Z (ip), vehicle: saline). In addition, the T/C (dose: 75.0 mg/kg/injection, schedule: Q01DX Z (ip), vehicle: saline) was 131 % of control [5 of 6 alive] and the T/C (dose: 150.0 mg/kg/injection, schedule: Q01DX Z (ip), vehicle: saline) was 130 % of control.

Take `Nc1nc(=S)c2[nH]cnc2[nH]1`: the T/C is 140 % of control (dose: 0.25 mg/kg/injection, schedule: Q01DX Z (ip), vehicle: carboxymethylcellulose (CMC)); 128 % of control (dose: 0.5 mg/kg/injection, schedule: Q01DX Z (ip), vehicle: carboxymethylcellulose (CMC)); 136 % of control (dose: 1.25 mg/kg/injection, schedule: Q01DX010 (ip), vehicle: saline); 140 % of control (dose: 1.25 mg/kg/injection, schedule: Q01DX Z (ip), vehicle: carboxymethylcellulose (CMC)); 144 % of control [5 of 6 alive] (dose: 2.5 mg/kg/injection, schedule: Q01DX010 (ip), vehicle: saline); 128 % of control (dose: 2.5 mg/kg/injection, schedule: Q01DX Z (ip), vehicle: carboxymethylcellulose (CMC)). Besides, the T/C is, setting by setting: under setting [2], 148 % of control; (dose: 62.0 micrograms/kg/injection, schedule: Q01DX Z (ip), vehicle: carboxymethylcellulose (CMC)) 125 % of control; (dose: 250.0 micrograms/kg/injection, schedule: Q01DX Z (ip), vehicle: carboxymethylcellulose (CMC)) 125 % of control. Besides, the survivor count is, setting by setting: (dose: 35.0 mg/kg/injection, schedule: Q01DX Z (ip), vehicle: carboxymethylcellulose (CMC)) 5 of 6; (dose: 60.0 mg/kg/injection, schedule: Q01DX Z (ip), vehicle: carboxymethylcellulose (CMC)) 4 of 6.

As for `CCCCNc1ncnc2c1cnn2C`, the survivor count was 6 of 6 (dose: 125.0 mg/kg/injection, schedule: Q01DX010 (ip), vehicle: saline) and 0 of 6 (dose: 250.0 mg/kg/injection, schedule: Q01DX010 (ip), vehicle: saline).

These data come from PubChem BioAssay AID282 (DTP/NCI, 2004).
